Laboratory results as given in paper PMC5389439.
Read-outs that look alike come from different tables or passages of the source. These are yes or no findings as the source states them, for the method shown. Binding seen in cells or lysates may run through a third protein. Some binding calls cover weakened binding; strength is not graded here. For some assays here: Sequences can lack the tags named with a protein.

Protein sequences, listed by entry. Tags and fused reporters are not part of them. Residues count along the entry.
UniProt Q01705, residues 1744-2531: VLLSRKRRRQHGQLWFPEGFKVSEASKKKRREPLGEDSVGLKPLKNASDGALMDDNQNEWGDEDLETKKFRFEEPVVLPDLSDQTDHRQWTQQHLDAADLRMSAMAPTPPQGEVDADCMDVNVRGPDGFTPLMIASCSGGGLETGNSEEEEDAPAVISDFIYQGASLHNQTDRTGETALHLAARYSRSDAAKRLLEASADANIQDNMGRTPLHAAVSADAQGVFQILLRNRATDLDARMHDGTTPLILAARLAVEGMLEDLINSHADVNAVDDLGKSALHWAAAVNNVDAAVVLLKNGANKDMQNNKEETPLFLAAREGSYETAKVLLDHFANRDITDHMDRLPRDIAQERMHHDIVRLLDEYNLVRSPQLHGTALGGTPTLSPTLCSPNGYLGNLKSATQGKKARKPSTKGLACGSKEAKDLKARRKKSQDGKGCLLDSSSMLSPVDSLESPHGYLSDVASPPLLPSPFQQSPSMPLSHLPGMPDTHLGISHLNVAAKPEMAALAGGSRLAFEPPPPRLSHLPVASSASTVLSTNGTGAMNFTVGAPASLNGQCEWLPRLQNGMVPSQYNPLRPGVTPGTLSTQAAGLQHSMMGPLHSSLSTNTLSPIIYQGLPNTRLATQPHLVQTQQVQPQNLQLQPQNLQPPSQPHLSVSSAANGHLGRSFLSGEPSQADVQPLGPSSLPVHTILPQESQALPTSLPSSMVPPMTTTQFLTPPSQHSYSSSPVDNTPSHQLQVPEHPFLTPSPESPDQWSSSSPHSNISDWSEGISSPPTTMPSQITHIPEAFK
UniProt P31266: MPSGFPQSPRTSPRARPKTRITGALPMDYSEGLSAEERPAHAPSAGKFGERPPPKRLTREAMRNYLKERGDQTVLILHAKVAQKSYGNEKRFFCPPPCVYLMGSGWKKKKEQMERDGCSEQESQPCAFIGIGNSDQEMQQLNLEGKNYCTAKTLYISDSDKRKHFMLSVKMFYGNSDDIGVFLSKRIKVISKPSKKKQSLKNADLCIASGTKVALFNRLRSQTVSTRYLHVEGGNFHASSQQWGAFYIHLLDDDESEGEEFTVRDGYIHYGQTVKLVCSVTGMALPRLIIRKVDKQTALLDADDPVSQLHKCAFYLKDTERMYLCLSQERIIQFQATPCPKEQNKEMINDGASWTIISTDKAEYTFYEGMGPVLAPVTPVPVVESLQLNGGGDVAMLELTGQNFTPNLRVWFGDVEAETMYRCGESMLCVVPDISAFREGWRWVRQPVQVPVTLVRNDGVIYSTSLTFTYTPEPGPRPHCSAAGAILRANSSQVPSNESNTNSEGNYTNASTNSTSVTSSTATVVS
UniProt Q62296: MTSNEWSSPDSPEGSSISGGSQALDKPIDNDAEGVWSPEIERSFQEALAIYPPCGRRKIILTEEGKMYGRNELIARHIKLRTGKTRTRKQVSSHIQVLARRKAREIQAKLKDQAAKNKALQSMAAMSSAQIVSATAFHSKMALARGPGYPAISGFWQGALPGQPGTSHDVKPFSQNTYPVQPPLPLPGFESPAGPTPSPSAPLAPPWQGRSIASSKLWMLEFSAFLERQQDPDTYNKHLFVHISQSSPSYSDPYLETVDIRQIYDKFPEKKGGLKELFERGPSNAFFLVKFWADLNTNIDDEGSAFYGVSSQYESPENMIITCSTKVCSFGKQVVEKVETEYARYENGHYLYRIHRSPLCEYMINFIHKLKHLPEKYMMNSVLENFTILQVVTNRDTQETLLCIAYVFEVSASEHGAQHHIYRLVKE

Legend:
Test in all cases: co-IP; tagged proteins co-expressed in 293T cells; lysis buffer 10 mM HEPES pH 7.6, 250 mM NaCl, 0.1% NP40, 5 mM EDTA; IP with tag antibody and protein-G PLUS-agarose, 30 min at 4 °C; blot with tag antibodies; with or without co-expressed HA-Yap or Myc-NICD1
[1] = target: T1, SBNO1-V5 (human Strawberry Notch 1, V5-tagged) (human) (UniProt A3KN83)
T1 sequence: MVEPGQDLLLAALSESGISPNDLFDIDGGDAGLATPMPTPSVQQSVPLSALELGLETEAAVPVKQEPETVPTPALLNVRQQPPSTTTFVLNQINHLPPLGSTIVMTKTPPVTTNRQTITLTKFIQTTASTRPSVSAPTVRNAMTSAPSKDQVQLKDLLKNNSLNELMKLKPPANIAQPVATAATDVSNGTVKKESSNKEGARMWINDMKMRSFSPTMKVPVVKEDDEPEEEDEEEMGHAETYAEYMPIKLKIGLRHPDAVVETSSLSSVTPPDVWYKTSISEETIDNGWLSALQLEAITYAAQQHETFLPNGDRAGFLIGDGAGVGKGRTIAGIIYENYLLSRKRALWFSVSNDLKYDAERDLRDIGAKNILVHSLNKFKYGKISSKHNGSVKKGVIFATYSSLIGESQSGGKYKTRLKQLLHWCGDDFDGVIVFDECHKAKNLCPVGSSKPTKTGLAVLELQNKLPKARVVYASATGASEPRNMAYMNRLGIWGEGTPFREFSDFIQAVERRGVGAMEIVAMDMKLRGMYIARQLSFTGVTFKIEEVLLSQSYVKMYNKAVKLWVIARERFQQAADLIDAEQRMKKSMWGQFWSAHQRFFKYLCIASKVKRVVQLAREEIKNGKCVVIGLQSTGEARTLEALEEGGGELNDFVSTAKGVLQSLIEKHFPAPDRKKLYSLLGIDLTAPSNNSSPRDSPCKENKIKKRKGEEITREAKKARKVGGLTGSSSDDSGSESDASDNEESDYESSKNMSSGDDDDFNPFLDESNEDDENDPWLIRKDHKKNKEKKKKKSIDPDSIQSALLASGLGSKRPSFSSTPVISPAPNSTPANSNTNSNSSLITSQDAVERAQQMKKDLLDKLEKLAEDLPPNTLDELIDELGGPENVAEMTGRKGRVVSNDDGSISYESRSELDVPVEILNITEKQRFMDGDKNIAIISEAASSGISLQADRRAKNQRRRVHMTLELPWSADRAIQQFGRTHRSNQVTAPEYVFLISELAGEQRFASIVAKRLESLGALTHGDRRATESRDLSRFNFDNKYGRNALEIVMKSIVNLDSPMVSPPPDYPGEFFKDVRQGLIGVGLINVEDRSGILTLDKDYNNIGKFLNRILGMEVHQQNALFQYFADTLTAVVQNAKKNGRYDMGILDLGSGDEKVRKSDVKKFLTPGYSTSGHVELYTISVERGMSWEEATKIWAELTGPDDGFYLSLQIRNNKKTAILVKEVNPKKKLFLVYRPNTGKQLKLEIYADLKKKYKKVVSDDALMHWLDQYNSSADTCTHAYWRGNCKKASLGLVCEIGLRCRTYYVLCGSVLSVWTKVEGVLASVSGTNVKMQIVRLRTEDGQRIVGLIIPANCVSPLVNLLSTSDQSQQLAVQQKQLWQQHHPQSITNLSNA

[2] = target: Myc-mNICD1 (V1744-K2531) (mouse) (UniProt Q01705)
FLAG-mRbpj (mouse) [3] = target: FLAG-mRbpj (mouse) (UniProt P31266)
FLAG-mTead4 (mouse) = FLAG-mTead4 (mouse) (UniProt Q62296)
FLAG-mRbpj (mouse) [4] = target: FLAG-mRbpj (mouse) (UniProt P31266); remark: listed apart in the source

**Q.** What does the source list for FLAG-mRbpj (from UniProt P31266 1-526)?
**A.** binding [1]: binds; binding [2]: binds

**Q.** How did the binding (FLAG-mRbpj (mouse) [3]) turn out when “Myc-mNICD1 (V1744-K2531) (from UniProt Q01705 1744-2531) (domain or fragment)” was run?
**A.** binds

B1: SBNO1-Myc (human Strawberry Notch 1, Myc-tagged) (protein, UniProt A3KN83 1-1393)
chain: T1 sequence
**Q.** For B1, which binding (FLAG-mTead4 (mouse)) is on record?
**A.** binds weakly

B2: SBNO1-V5 (human Strawberry Notch 1, V5-tagged) (protein, UniProt A3KN83 1-1393)
chain: T1 sequence
**Q.** Which binding (FLAG-mRbpj (mouse) [4]) does the source give for B2 here?
**A.** binds
